According to PubChem BioAssay AID651768 (National Center for Advancing Translational Sciences (NCATS), 2012):
In all, about 360,000 compounds went through this assay and about 1,700 (0.47%) were called active. Inconclusive results, whose numbers are uncertain, are shown with a selection of clear calls. Calls follow the shape of the dose curve; as a rule, active = well fitted inhibition curve with a large enough effect; inconclusive = small, poorly fitted or top-dose-only effect; inactive = no such curve, though single readings can be large or run the other way. Potencies beside an inconclusive call are fits to weak or partial responses and may not hold up.

Chains of the proteins cited; added tags and fusions are not shown.
UniProt Q14191, whole entry, looked up: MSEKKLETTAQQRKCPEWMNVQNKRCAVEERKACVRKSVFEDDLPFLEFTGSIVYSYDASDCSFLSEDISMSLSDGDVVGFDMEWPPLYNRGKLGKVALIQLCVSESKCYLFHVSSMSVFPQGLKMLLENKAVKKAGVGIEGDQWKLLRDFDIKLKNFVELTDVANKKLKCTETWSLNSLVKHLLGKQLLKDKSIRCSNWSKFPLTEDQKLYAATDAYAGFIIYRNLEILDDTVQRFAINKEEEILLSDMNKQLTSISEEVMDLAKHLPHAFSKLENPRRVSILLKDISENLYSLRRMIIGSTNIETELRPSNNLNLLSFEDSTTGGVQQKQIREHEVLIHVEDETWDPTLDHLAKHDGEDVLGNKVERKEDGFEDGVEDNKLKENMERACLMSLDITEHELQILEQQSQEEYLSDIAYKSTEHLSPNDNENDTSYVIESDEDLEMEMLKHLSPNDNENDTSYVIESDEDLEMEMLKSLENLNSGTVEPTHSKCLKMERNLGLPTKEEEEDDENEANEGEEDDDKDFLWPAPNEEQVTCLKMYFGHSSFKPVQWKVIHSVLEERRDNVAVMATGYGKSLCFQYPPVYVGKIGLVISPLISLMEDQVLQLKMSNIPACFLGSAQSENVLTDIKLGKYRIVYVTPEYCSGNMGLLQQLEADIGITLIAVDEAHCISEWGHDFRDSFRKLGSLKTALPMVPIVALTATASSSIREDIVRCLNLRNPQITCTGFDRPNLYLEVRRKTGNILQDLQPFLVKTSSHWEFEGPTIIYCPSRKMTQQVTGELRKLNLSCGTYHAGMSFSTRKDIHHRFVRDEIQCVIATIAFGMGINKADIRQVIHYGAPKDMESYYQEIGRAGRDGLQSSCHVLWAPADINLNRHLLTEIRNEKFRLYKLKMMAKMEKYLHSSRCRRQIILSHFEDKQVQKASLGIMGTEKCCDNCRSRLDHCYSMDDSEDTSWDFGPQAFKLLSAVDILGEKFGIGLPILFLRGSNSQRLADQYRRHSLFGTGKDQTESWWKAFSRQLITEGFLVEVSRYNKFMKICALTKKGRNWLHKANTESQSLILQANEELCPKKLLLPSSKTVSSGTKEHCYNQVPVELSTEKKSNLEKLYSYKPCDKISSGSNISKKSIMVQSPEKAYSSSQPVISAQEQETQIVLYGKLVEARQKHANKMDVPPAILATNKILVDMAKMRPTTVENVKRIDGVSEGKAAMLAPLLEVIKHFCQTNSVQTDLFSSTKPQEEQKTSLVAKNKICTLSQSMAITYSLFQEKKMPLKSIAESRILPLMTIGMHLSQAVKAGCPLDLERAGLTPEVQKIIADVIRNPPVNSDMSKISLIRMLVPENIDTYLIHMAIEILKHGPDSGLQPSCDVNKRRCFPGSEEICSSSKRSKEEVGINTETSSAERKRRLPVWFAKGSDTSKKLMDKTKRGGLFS

The molecules below were run against Bifunctional 3'-5' exonuclease/ATP-dependent helicase WRN (Homo sapiens) (UniProt Q14191) (assay: qHTS for Inhibitors of WRN Helicase). Settings: WRN helicase unwinding, fluorescent forked duplex, kinetic; activity change, negative = inhibition: at 114 µM (top of the series) unless noted.
Method in brief: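 Screening of the MLSMR collection measured strand separation of a quenched forked DNA duplex (100 nM) by 20 nM WRN with 2 mM ATP, all final. Compounds were preincubated with enzyme 15 min at room temperature.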
% is scaled to controls: 0 for no effect and ±100 for the full control effect; potency is read from the fitted curve at half-maximal effect.
Also: nearly all actives have a fitted effect of over 55% in size.

Row | SMILES | activity change, negative = inhibition | Potency
1 | CCSc1n[nH]c(=S)s1 | inactive: -5.4% | 
2 | CCOC(=O)c1ccc(OCCOc2cccc(C)c2)cc1 | inactive: 4.48% | 
3 | O=C(Cc1c(C(=O)O)[nH]c2ccc(Cl)cc12)Nc1ccc2c(c1)OCCO2 |  | inconclusive: 100 µM [inhibitor, partial curve]
4 | COC(=O)c1cc(OC)c(OC)cc1NCC(=O)Nc1cccc(C(F)(F)F)c1 |  | inconclusive: 12.6 µM [inhibitor, partial curve]
5 | O=[N+]([O-])c1cc([N+](=O)[O-])c2cc3ccccc3nc2c1 |  | inconclusive: 11.2 µM [inhibitor, partial curve]
6 | COc1ccc(-n2c(SCC(=O)Nc3ccc(Br)cc3)nc(O)cc2=O)cc1 |  | inconclusive: 7.94 µM [inhibitor, full curve, poor fit]
7 | COc1cccc(CNC(=O)C2CCN(S(=O)(=O)N3CCC4(CC3)OCCO4)CC2)c1 |  | inconclusive: 15.8 µM [inhibitor, single point]
8 | COc1cccc(/C=C2/C(=O)NN(c3ccc(Br)cc3)C2=O)c1O |  | active: 0.67 µM
9 | COC(=O)c1ccc(CSc2nnc(C)s2)cc1 |  | inconclusive: 79.4 µM [inhibitor, single point]
10 | Cc1cc(NC(=O)CSc2nnc(C)c(=O)n2N)no1 | inactive: -2.85% [at 57.1 µM] | 
11 | COc1ccc(OC)c(N=c2ssnc2Cl)c1 |  | active: 56.2 µM
12 | O=C(O)c1ccccc1-c1ccccc1C(=O)Nc1cccc(-c2nc3ccccc3o2)c1 |  | inconclusive: 50.1 µM [inhibitor, partial curve]
13 | CCOC(=O)c1ccc(NC(=S)N(Cc2cccnc2)Cc2ccco2)cc1 |  | inconclusive: 79.4 µM [inhibitor, single point]
14 | O=C(Nc1cccc(S(=O)(=O)N2CCCCC2)c1)c1ccc([N+](=O)[O-])o1 | inactive: -3.08% | 
15 | Cc1ccc(/C=c2/sc3nnc(-c4ccccc4Cl)n3c2=O)o1 |  | inconclusive: 31.6 µM [inhibitor, partial curve]
16 | Cn1c(=O)n(C)c2cc(/C=N/NC(=S)NCc3ccccc3)ccc21 |  | inconclusive: 25.1 µM [inhibitor, full curve]
17 | CCOc1ccc2c(c1)C(NC(C)=O)C(=O)N2CCN1CCOCC1 (stereo unspecified) | inactive: 9.61% | 
18 | CCCN1CCN(CCCNC(=O)Cn2nc(C)n3c(cc4cc(F)ccc43)c2=O)CC1 | inactive: 1.46% | 
19 | CC1=C(C)/C(=N\OS(=O)(=O)c2ccccc2)C=CC1=O |  | inconclusive: 56.2 µM [inhibitor, partial curve]
20 | O=c1c(Cl)c(N/N=C/c2ccc(Cl)cc2)cnn1-c1ccccc1 |  | inconclusive: 28.2 µM [inhibitor, single point]
21 | CCn1c(CSc2nccn2C)nc2cc(C(=O)O)ccc21 |  | active: 79.4 µM
22 | O=C(COC(=O)c1ccccc1C(=O)c1ccc(Cl)cc1)NCc1ccccc1 | inactive: 1.99% | 
23 | O=C(/C=C\c1ccco1)Oc1cccc2cccnc12 | inactive: -16.1% | 

Row | SMILES | activity change, negative = inhibition | Potency
24 | CN(C)CCNC(=O)c1c(CSc2ccccc2)noc1C(=O)NCc1ccccc1 | inactive: -1.63% | 
25 | Nc1nn2c(-c3ccccc3)cc(=O)[nH]c2c1N=Nc1ccc(O)cc1 |  | inconclusive: 50.1 µM [inhibitor, partial curve]
26 | COc1ccc2c(c1)c(=O)oc1cc(OCC(=O)N3CCc4ccccc4C3)ccc12 |  | inconclusive: 56.2 µM [inhibitor, partial curve]
27 | CC(=O)Nc1ccc(SCC(=O)c2cc(C)n(-c3ccccc3)c2C)cc1 |  | inconclusive: 25.1 µM [inhibitor, single point]
28 | N#Cc1c(=O)c2nc(NCCCO)ncc2n2c(=O)c3ccccc3[nH]c12 |  | inconclusive: 44.7 µM [inhibitor, partial curve]
29 | CN(CCCCCCCCCCN(C)C(=O)Oc1cccc([N+](C)(C)C)c1)C(=O)Oc1cccc([N+](C)(C)C)c1 | inactive: -3.94% | 
30 | CNc1ccccc(C(=O)/C=C/c2ccccc2OC)c1=O |  | inconclusive: 50.1 µM [inhibitor, partial curve]
31 | Cc1ccc(C(=O)N(CCN2CCCCC2)CC2CCCN(C3CCCC3)C2)s1 (stereo unspecified) |  | inconclusive: 89.1 µM [inhibitor, single point]
32 | Nc1ccc2c(c1)C(=O)C(=O)c1ccccc1-2 |  | active: 35.5 µM
33 | N/C(=N\OC(=O)c1ccccc1)c1ccccn1 | inactive: 2.59% | 
34 | Cc1onc(-c2ccccc2)c1C(=O)Nc1sc2c(c1C#N)CCC2 |  | active: 50.1 µM
35 | COc1ccccc1-c1nnc(SCC(=O)c2ccc(C3CCCCC3)cc2)n1Cc1ccco1 |  | inconclusive: 39.8 µM [inhibitor, partial curve]
36 | CC(=O)c1ccc(N(CC(=O)NCC2CCCO2)C(=O)CCC(=O)Nc2cc(C)on2)cc1 (stereo unspecified) |  | inconclusive: 17.8 µM [inhibitor, single point]
37 | Cc1ccc(C)c(S(=O)(=O)Nc2ccc3oc(C)c(C(=O)O)c3c2)c1 |  | active: 56.2 µM
38 | COc1ccc(N=C2C=CC(=O)O2)cc1 | inconclusive: -55.9% [inhibitor] | 
39 | CC(=O)Nc1cc(-c2ccc(N3CCN(C)CC3)cc2)cn2c(-c3ccc(F)c(Cl)c3)cnc12 |  | inconclusive: 89.1 µM [inhibitor, single point]
40 | CCn1c(=O)c(=O)[nH]c2cc(C(=O)NC(C)c3ccc(S(N)(=O)=O)cc3)ccc21 (stereo unspecified) |  | inconclusive: 17.8 µM [inhibitor, partial curve]
41 | COC(=O)c1ccc(-c2ccc(C(c3c(C)[nH][nH]c3=O)c3c(C)[nH][nH]c3=O)o2)cc1 |  | inconclusive: 39.8 µM [inhibitor, single point]
42 | Nc1c(C(=O)NCC2CCCO2)sc2nc3c(c(-c4ccco4)c12)CC/C3=C\c1ccco1 (stereo unspecified) |  | active: 2.82 µM
43 | COc1cc(NCCCCCCN)c2ncccc2c1OC |  | active: 50.1 µM
44 | COc1ccc(NC(=O)c2ccc3c(c2)C(=O)N(Cc2ccncc2)C3=O)cc1S(N)(=O)=O |  | inconclusive: 39.8 µM [inhibitor, full curve]
45 | CC(C)(C)C(=O)/C(C#N)=C/c1cccs1 |  | inconclusive: 14.1 µM [inhibitor, full curve, poor fit]
46 | CC(=O)Nc1cc(-c2cccc(C(=O)NCCN(C)C)c2)cn2c(-c3ccc(S(C)(=O)=O)cc3)cnc12 |  | inconclusive: 39.8 µM [inhibitor, single point]

Molecules shown so far containing a nitro group on carbon (2):
Row | SMILES | activity change, negative = inhibition | Potency
5 | O=[N+]([O-])c1cc([N+](=O)[O-])c2cc3ccccc3nc2c1 |  | inconclusive: 11.2 µM [inhibitor, partial curve]
14 | O=C(Nc1cccc(S(=O)(=O)N2CCCCC2)c1)c1ccc([N+](=O)[O-])o1 | inactive: -3.08% | 
